This is an account of results in the supplement of paper PMC10735217.

For the assay, the system named is HEK293A TEAD-LUC reporter. The assay can be described thus: TEAD-luciferase reporter activity (YAP activation), robust Z score vs plate; higher = stronger YAP/TEAD activation. Particulars: 24 h.

The other results are listed elsewhere or left out. Single values are uncertain here, since repeats match poorly.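 Human kidney-derived cells stably carry a construct in which eight TEAD-binding elements drive luciferase, measured by luminescence in a drug-repurposing library screen. A hit is any compound whose signal exceeds the plate mean by more than five robust Z scores.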

For the molecule `[Cl][K]` [Potassium chloride], the TEAD-luciferase reporter activity runs as follows: (compound concentration: 200 nM) inactive: -1.21; (compound concentration: 2 uM) inactive: 0.102; (compound concentration: 10 uM) inactive: 0.913.

For `c1ccc(-c2ccc(C(c3ccccc3)n3ccnc3)cc2)cc1` (configuration not stated), the TEAD-luciferase reporter activity runs as follows: (compound concentration: 200 nM) inactive: -0.268; (compound concentration: 2 uM) inactive: -1.1; (compound concentration: 10 uM) inactive: -0.907.

`C=Cc1cccc[n+]1[O-]`: the TEAD-luciferase reporter activity was inactive: -0.639 (compound concentration: 200 nM), inactive: -0.604 (compound concentration: 2 uM) and inactive: -0.942 (compound concentration: 10 uM).

Regarding `CC(C)(C)C(=O)NCCCC(=O)O` [pivagabine], the TEAD-luciferase reporter activity reads like this: (compound concentration: 200 nM) inactive: 3.17; (compound concentration: 2 uM) inactive: 3.49; (compound concentration: 10 uM) active: 5.87.

As to `CC[C@H](C)[C@@H]1C(=O)N[C@H](C2Cc3ccccc3C2)C(=O)N1[C@H](C(=O)N1CCOCC1)c1ccc(C)nc1C` [epelsiban], the TEAD-luciferase reporter activity is, setting by setting: (compound concentration: 200 nM) inactive: -1.1; (compound concentration: 2 uM) inactive: 0.0385; (compound concentration: 10 uM) inactive: -0.929.

On to `COCC(O)CN1CCN(C(C)c2ccc(Cl)cc2)CC1` (configuration not stated), for which the TEAD-luciferase reporter activity was inactive: -0.872 (compound concentration: 200 nM), inactive: -1.19 (compound concentration: 2 uM) and inactive: 0.28 (compound concentration: 10 uM).

Take `COCCOC(=O)N1CCN(S(=O)(=O)c2cc(F)c(Oc3ccc(Cl)cc3)c(F)c2)[C@@H](C(=O)NO)C1`: the TEAD-luciferase reporter activity by setting is: (compound concentration: 200 nM) inactive: 0.599; (compound concentration: 2 uM) inactive: 2.3; (compound concentration: 10 uM) inactive: 1.95.

On to `COc1ccc2c(c1)c(CC(=O)OC/C=C(\C)CC/C=C(\C)CCC=C(C)C)c(C)n2C(=O)c1ccc(Cl)cc1` [Indometacin farnesil], for which the TEAD-luciferase reporter activity was inactive: -2.82 (compound concentration: 200 nM), inactive: -1.16 (compound concentration: 2 uM) and inactive: -0.961 (compound concentration: 10 uM).

On to `CCCCCS(=O)(=O)NC(=O)c1ccc2nc(C)n(Cc3ccc(Cl)cc3Cl)c2c1`, for which the TEAD-luciferase reporter activity is, setting by setting: (compound concentration: 200 nM) inactive: -0.805; (compound concentration: 2 uM) inactive: 1.53; (compound concentration: 10 uM) inactive: 0.608.

As for `O=C(CS(=O)Cc1ccco1)NCCCOc1cccc(CN2CCCCC2)c1` (configuration not stated), the TEAD-luciferase reporter activity was inactive: -1.15 (compound concentration: 200 nM), inactive: -0.444 (compound concentration: 2 uM) and inactive: 1.37 (compound concentration: 10 uM).

As to `CC(C)(O)CC(=O)O` [Calcium beta-hydroxy-beta-methylbutyrate], the TEAD-luciferase reporter activity is inactive: -0.121 (compound concentration: 200 nM), inactive: -0.84 (compound concentration: 2 uM) and inactive: -0.0337 (compound concentration: 10 uM).

Consider `OCC1OCC(O)C(O)[C@@H]1O` (some centres not stated), for which the TEAD-luciferase reporter activity (compound concentration: 200 nM) is inactive: -1.15, the TEAD-luciferase reporter activity (compound concentration: 2 uM) is inactive: -1.63 and the TEAD-luciferase reporter activity (compound concentration: 10 uM) is inactive: -0.0534.

As for `C[N+]1(c2cccc(C(F)(F)F)c2)CCC(N)=N1` (configuration not stated), the TEAD-luciferase reporter activity reads like this: (compound concentration: 200 nM) inactive: -1.21; (compound concentration: 2 uM) inactive: 4.23; (compound concentration: 10 uM) inactive: 0.224.

Regarding `O=C(O)c1cn(C2CC2)c2cc(-n3cccc3)c(F)cc2c1=O`, the TEAD-luciferase reporter activity runs as follows: (compound concentration: 200 nM) inactive: -0.844; (compound concentration: 2 uM) inactive: -1.16; (compound concentration: 10 uM) inactive: 0.993.

Turning to `CCN(CC)CCc1nc(-c2ccccc2)no1`, the TEAD-luciferase reporter activity is, setting by setting: (compound concentration: 200 nM) inactive: 0.642; (compound concentration: 2 uM) inactive: -0.698; (compound concentration: 10 uM) inactive: -1.28.

`CO[C@@H]1[C@@H](O[C@@H]2O[C@H](C)[C@@H](O[C@H]3C[C@@](C)(O)[C@@H](OC(=O)CC(C)C)[C@H](C)O3)[C@H](N(C)C)[C@H]2O)[C@@H](CC=O)C[C@@H](C)[C@@H](O)/C=C/C=C/C[C@@H](C)OC(=O)C[C@H]1OC(C)=O` [Josamycin]: the TEAD-luciferase reporter activity is, setting by setting: (compound concentration: 200 nM) inactive: 3.81; (compound concentration: 2 uM) inactive: -0.675; (compound concentration: 10 uM) inactive: 2.58.

With `CC(C)C[C@H](N[C@@H](Cc1cncn1Cc1cc(Cl)cc(Cl)c1)C(=O)O)C(=O)O`, the TEAD-luciferase reporter activity by setting is: (compound concentration: 200 nM) inactive: -1.01; (compound concentration: 2 uM) inactive: -1.1; (compound concentration: 10 uM) inactive: 0.624.

As for `O=C(Nc1nc(-c2ccc(O)c(O)c2)c(-c2ccccc2)s1)c1ccc(O)c(O)c1`, the TEAD-luciferase reporter activity (compound concentration: 200 nM) is inactive: 1.71, the TEAD-luciferase reporter activity (compound concentration: 2 uM) was inactive: 0.671 and the TEAD-luciferase reporter activity (compound concentration: 10 uM) is inactive: -0.532.

Take `CCCCc1nc(C)c(CC(=S)N(C)C)c(=O)n1Cc1ccc(-c2ccccc2-c2nnn[nH]2)cc1` [fimasartan]: the TEAD-luciferase reporter activity by setting is: (compound concentration: 200 nM) inactive: -0.193; (compound concentration: 2 uM) inactive: -1.27; (compound concentration: 10 uM) inactive: 3.08.

With `CC(C)N1CCN(c2ccc(OCC3COC(Cn4cncn4)(c4ccc(Cl)cc4Cl)O3)cc2)CC1` (configuration not stated) [terconazole], the TEAD-luciferase reporter activity is inactive: -0.779 (compound concentration: 200 nM), inactive: -1.62 (compound concentration: 2 uM) and inactive: -0.724 (compound concentration: 10 uM).

In the case of `CN1CCC(=C2c3ccccc3CC(=O)c3sccc32)CC1`, the TEAD-luciferase reporter activity by setting is: (compound concentration: 200 nM) inactive: -0.138; (compound concentration: 10 uM) active: 6.8.

As for `CN1CCC(=C2c3ccccc3CC(=O)c3sccc32)CC1` [ketotifen, Melbourne Laboratories], the TEAD-luciferase reporter activity (compound concentration: 2 uM) is inactive: 0.873.

Consider `CC1=C(C(=O)O)N2C(=O)[C@@H](NC(=O)Cc3ccc(C4=NCCCN4)cc3)[C@H]2SC1`, for which the TEAD-luciferase reporter activity was inactive: -0.194 (compound concentration: 200 nM), inactive: 0.317 (compound concentration: 2 uM) and inactive: -0.543 (compound concentration: 10 uM).

For `CC(=O)OCC(CCn1cnc2cnc(N)nc21)COC(=O)OC(C)C` (configuration not stated), the TEAD-luciferase reporter activity (compound concentration: 200 nM) was inactive: -0.878, the TEAD-luciferase reporter activity (compound concentration: 2 uM) was inactive: 1.94 and the TEAD-luciferase reporter activity (compound concentration: 10 uM) is inactive: 1.39.

With `Cc1cc(CO)nc2cc3c(cc12)OC(C)(C)[C@@H](O)[C@@H]3NCCc1ccccc1`, the TEAD-luciferase reporter activity was inactive: 2 (compound concentration: 200 nM), inactive: -0.506 (compound concentration: 2 uM) and inactive: -0.172 (compound concentration: 10 uM).
